# The other results are listed elsewhere or left out. Single values are uncertain here, since repeats match poorly.
# Amino acid sequences for entries named in this document (tags omitted).
# UniProt Q15717, whole entry: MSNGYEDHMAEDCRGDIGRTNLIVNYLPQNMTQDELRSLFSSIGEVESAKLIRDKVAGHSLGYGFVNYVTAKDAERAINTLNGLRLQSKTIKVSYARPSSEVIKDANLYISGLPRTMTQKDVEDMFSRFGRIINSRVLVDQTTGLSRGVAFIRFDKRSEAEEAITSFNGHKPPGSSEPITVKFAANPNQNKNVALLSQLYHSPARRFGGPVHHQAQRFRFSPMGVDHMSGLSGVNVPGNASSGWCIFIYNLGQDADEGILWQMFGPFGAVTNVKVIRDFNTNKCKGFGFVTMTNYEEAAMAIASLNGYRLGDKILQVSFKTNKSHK
# Target: HuR (ELAVL1) - TNFalpha ARE RNA complex (UniProt Q15717)
# Experiment: AlphaScreen HuR-RNA complex signal Z-score relative to positive (Bi-TNF, DMSO) controls (Z-score (SD units of positive control)); higher = more complex signal
# Details: screen stage: primary screen; compound concentration: 25 nM
row,Compound,AlphaScreen HuR-RNA complex signal Z-score
1,Cc1cc2nc3c(=O)[nH]c(=O)nc-3n(C[C@H](O)[C@H](O)[C@H](O)CO)c2cc1C,1.5
2,NC(=O)c1ccc[n+]([C@@H]2O[C@H](COP(=O)([O-])OP(=O)(O)OC[C@H]3O[C@@H](n4cnc5c(N)ncnc54)[C@H](O)[C@@H]3O)[C@@H](O)[C@H]2O)c1,3.96
3,NCC(=O)CCC(=O)O,1.79
4,COc1ccc(CN(CCN(C)C)c2ncccn2)cc1,0.865
5,COc1c2ccoc2cc2oc(C)cc(=O)c12,-4.88
6,Cc1ccc(C)c(OCCCC(C)(C)C(=O)O)c1,-1.89
7,COC(=O)c1c(C)c2c(c(C)c1O)OC(=O)c1c(C)c(Cl)c(O)c(Cl)c1O2,2.17
8,NCCC(=O)c1ccccc1N,1.99
9,COc1cc2c(cc1OC)[C@@H]1Cc3ccc(OC)c(OC)c3CN1CC2,2.28
10,O=C(CCCN1CCC(O)(c2ccc(Cl)cc2)CC1)c1ccc(F)cc1,-1.71
11,CC1(C)[C@@H](O)CC[C@]2(C)[C@H]3C(=O)C=C4[C@@H]5C[C@@](C)(C(=O)O)CC[C@]5(C)CC[C@@]4(C)[C@]3(C)CC[C@@H]12,2.46
12,CCCCCC(=O)Cc1cc(O)cc(O)c1C(=O)Oc1cc(CC(=O)CCCCC)c(C(=O)O)c(OC)c1,2.18
13,COc1ccc(-c2coc3cc(O)ccc3c2=O)c(O)c1O,2.08
14,COCCOC(=O)C1=C(C)NC(C)=C(C(=O)OC(C)C)C1c1cccc([N+](=O)[O-])c1 (centres undefined),0.639
15,NCCS,1.83
16,CN1C(C(=O)Nc2ccccn2)=C(O)c2ccccc2S1(=O)=O,5.22
17,Cc1c(NC(C)C)c(=O)n(-c2ccccc2)n1C,2.23
18,O=c1cc(-c2ccc(O)cc2)oc2cc(O[C@@H]3O[C@H](CO)[C@@H](O)[C@H](O)[C@H]3O)cc(O)c12,-0.176
19,CCCCCCCCCCOc1cc2c(O)c(C(=O)OCC)cnc2cc1OCC,-1.69
20,CC(C)c1cccc(=O)c(O)c1,0.991
21,COc1ccc([C@@H]2Sc3ccccc3N(CCN(C)C)C(=O)[C@@H]2OC(C)=O)cc1,4.2
22,Cc1cn([C@H]2C[C@H](N=[N+]=[N-])[C@@H](CO)O2)c(=O)[nH]c1=O,0.272
23,CC(C[N+](C)(C)C)OC(N)=O (centres undefined),0.37
24,CC(=O)O[C@@H]1CC[C@@]2(C)C(C[C@@H](OC(C)=O)[C@@]3(C)C4=CC(=O)O[C@@H](c5ccoc5)[C@]4(C)CCC23)C1(C)C (stereo partly drawn) [3alpha-ACETOXYDIHYDRODEOXYGEDUNIN],0.804
25,O=C(O)CCCC[C@@H]1CCSS1,1.11

# Exported bar-delimited: entries from further up
row | Compound | AlphaScreen HuR-RNA complex signal Z-score
5 | COc1c2ccoc2cc2oc(C)cc(=O)c12 | -4.88
10 | O=C(CCCN1CCC(O)(c2ccc(Cl)cc2)CC1)c1ccc(F)cc1 | -1.71
12 | CCCCCC(=O)Cc1cc(O)cc(O)c1C(=O)Oc1cc(CC(=O)CCCCC)c(C(=O)O)c(OC)c1 | 2.18

# Continuation.

row,Compound,AlphaScreen HuR-RNA complex signal Z-score
1,CC(=O)O[C@H]1C[C@@H](O)C(C)(C)[C@@H]2C[C@@H](OC(C)=O)[C@]3(C)[C@H](CC[C@@]4(C)[C@@H](c5ccoc5)OC(=O)[C@H]5O[C@@]534)[C@@]12C,0.0179
2,C=C(C)[C@H]1COc2cc3oc(=O)ccc3cc2O1,2.7
3,O=C1N=C(O)NC1(c1ccccc1)c1ccccc1,0.919
4,COc1cc(NS(=O)(=O)c2ccc(N)cc2)nc(OC)n1,0.221
5,CC[N+](CC)(CC(=O)Nc1c(C)cccc1C)Cc1ccccc1,1.68
6,COc1cc2ccc(=O)oc2cc1O,0.714
7,CC1(C)O[C@@H]2[C@@H](CO[C@@]3(COS(N)(=O)=O)OC(C)(C)O[C@@H]23)O1,-1.05
8,COc1cc2oc3cc(OC)c(OC)c(CC=C(C)C)c3c(=O)c2c(O)c1CC=C(C)C,0.396
9,CC(=O)OCC(=O)[C@@]1(O)[C@H](OC(C)=O)C[C@H]2[C@@H]3CCC4=CC(=O)C=C[C@]4(C)[C@@]3(F)[C@@H](O)C[C@@]21C,-1.41
10,O=C(C=Cc1ccc(O)cc1)c1ccccc1O,1.35
11,COc1ccc2c3c1O[C@H]1C[C@@H](O)C=C[C@@]31CCN(C)C2,1.16
12,CCCC(=O)O[C@]1(C(=O)CO)CC[C@H]2[C@@H]3CCC4=CC(=O)CC[C@]4(C)[C@H]3[C@@H](O)C[C@@]21C,0.968
13,CC1(C)S[C@@H]2[C@H](NC(=O)COc3ccccc3)C(=O)N2[C@H]1C(=O)O,5.48
14,Cc1nnc(SCC2=C(C(=O)O)N3C(=O)[C@@H](NC(=O)Cn4cnnn4)[C@H]3SC2)s1,-3.66
15,O=c1[nH]c(=O)n([C@H]2C[C@H](O)[C@@H](CO)O2)cc1C(F)(F)F,2.08
16,O=C1OC(=O)[C@H]2[C@@H]1[C@@H]1CC[C@H]2O1,0.868
17,C[C@]12CCC3c4ccc(OS(=O)(=O)O)cc4CCC3C1CC[C@H]2O (some centres undefined),2.06
18,CC(C)NC(=N)NC(=N)Nc1ccc(Cl)cc1,-2.35
19,CC(C)[C@@H]1CC[C@@H](C)CC1=O,2.36
20,NCCCCN,1.58
21,CC1=CC2C(CC1=O)C(C)=CCC2C(C)C (centres undefined),1.5
22,CCCCCCCCNC(C)C(O)c1ccc(SC(C)C)cc1 (centres undefined),1.31
23,C[C@H]1O[C@@H](O[C@H]2[C@@H](O)C[C@H](O[C@H]3[C@@H](O)C[C@H](O[C@H]4CC[C@@]5(C)[C@H](CC[C@@H]6[C@@H]5CC[C@]5(C)[C@@H](C7=CC(=O)OC7)CC[C@]65O)C4)O[C@@H]3C)O[C@@H]2C)C[C@H](O)[C@@H]1O,-0.879
24,C=C(C)[C@@H]1CC[C@]2(C)CC[C@]3(C)[C@H](CC[C@@H]4[C@@]5(C)CC[C@H](O)C(C)(C)[C@@H]5CC[C@]43C)[C@@H]12,0.231

# From the supplement of paper PMC3741180, “A Novel High Throughput Biochemical Assay to Evaluate the HuR Protein-RNA Complex Formation” (PLoS ONE, 2013)
